Results are given in words; binding and its absence hold for the method and conditions named.
Target: mouse β2-microglobulin (mouse) (UniProt P01887)
Assay: condition: only pH 2.5 without added NaCl (50 μM protein); AUC; sedimentation velocity, 25 °C, 48,000 rpm, 50 μM protein, pH 2.5 without added NaCl, absorbance at 280 nm, SEDFIT; both purified

B1: mouse β2-microglobulin (natural protein, UniProt P01887 21-119, looked up)
chain: IQKTPQIQVYSRHPPENGKPNILNCYVTQFHPPHIEIQMLKNGKKIPKVEMSDMSFSKDWSFYILAHTEFTPTETDTYACRVKHASMAEPKTVYWDRDM
notes: β2-microglobulin, mouse; In the AUC the protein was acid-unfolded at pH 2.5; also called mβ2m; source: expressed and prepared as described previously [47]; purified (anion exchange at pH 8.5, gel filtration), lyophilised
**Q.** Which binding does the source give for B1 here?
**A.** The binding was “no binding”.
